Data as given in ChEMBL document CHEMBL1909046, “DrugMatrix in vitro pharmacology data”.

By UniProt entry, the sequences of proteins in these tests, tags left out.
UniProt P08913, whole entry: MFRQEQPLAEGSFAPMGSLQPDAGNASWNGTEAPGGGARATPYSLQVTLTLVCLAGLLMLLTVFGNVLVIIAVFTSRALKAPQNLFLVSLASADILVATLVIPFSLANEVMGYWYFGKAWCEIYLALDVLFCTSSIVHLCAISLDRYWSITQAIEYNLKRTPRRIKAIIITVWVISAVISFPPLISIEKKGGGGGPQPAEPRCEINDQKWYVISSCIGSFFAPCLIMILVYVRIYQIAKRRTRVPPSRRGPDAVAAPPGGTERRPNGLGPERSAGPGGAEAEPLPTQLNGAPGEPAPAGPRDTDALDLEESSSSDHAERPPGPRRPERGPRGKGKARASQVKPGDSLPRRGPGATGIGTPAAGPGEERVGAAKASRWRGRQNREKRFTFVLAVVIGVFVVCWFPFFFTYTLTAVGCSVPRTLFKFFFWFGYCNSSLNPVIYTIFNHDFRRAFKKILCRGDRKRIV
UniProt P23975, whole entry: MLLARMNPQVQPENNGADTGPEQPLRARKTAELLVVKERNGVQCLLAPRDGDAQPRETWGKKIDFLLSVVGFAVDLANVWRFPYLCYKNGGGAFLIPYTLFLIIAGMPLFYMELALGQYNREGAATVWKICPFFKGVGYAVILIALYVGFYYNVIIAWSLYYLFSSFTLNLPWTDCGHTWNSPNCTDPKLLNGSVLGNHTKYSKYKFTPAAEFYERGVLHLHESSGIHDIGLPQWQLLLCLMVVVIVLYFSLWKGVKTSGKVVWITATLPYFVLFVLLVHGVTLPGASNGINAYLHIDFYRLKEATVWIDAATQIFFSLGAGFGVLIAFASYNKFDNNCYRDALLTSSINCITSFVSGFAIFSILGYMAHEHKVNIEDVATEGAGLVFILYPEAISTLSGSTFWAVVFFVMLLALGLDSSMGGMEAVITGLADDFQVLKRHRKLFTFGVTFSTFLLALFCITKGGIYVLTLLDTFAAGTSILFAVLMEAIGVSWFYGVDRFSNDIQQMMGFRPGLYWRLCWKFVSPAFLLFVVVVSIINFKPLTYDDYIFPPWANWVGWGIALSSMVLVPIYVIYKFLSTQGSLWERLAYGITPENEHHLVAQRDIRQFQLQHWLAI
UniProt P41595, whole entry: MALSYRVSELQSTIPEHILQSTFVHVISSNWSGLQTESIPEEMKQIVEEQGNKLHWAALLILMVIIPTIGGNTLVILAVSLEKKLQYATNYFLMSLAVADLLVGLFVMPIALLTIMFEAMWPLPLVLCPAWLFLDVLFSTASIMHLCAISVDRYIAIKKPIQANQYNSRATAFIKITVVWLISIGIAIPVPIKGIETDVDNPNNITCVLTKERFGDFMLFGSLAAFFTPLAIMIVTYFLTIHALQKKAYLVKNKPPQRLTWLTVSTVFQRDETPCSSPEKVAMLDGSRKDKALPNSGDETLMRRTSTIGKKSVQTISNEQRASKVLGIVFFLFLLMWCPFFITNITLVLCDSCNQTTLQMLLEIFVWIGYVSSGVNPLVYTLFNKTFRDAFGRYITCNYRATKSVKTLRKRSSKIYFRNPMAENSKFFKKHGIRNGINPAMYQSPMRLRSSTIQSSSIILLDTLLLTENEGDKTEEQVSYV
UniProt P21728, whole entry: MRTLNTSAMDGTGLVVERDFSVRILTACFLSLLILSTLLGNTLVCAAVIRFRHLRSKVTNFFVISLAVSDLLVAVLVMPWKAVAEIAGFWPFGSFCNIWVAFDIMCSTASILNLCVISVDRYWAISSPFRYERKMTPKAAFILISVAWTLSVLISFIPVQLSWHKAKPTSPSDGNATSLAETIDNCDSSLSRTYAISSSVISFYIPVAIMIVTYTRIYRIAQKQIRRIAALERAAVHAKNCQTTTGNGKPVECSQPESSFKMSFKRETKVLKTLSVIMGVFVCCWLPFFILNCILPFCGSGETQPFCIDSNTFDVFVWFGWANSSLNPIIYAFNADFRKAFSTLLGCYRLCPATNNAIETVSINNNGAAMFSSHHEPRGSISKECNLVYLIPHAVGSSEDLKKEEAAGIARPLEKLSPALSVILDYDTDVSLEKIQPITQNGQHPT
UniProt Q01959, whole entry: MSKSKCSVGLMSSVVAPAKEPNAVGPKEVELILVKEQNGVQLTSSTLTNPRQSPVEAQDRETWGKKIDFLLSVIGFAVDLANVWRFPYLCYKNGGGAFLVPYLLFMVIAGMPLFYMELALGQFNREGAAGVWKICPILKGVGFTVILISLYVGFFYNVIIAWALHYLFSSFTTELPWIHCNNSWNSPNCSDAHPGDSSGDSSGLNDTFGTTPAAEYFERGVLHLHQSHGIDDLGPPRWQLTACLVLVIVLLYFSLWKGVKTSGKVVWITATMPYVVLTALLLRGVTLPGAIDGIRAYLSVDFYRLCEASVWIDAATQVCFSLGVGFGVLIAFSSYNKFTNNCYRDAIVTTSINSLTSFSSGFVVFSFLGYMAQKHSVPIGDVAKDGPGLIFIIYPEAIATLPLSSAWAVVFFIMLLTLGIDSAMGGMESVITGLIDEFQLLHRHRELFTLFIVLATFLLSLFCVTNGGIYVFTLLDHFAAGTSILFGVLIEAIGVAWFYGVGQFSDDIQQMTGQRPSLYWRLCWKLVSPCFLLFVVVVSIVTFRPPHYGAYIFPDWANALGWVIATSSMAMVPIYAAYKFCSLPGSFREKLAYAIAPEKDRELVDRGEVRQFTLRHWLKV
UniProt P08173, whole entry: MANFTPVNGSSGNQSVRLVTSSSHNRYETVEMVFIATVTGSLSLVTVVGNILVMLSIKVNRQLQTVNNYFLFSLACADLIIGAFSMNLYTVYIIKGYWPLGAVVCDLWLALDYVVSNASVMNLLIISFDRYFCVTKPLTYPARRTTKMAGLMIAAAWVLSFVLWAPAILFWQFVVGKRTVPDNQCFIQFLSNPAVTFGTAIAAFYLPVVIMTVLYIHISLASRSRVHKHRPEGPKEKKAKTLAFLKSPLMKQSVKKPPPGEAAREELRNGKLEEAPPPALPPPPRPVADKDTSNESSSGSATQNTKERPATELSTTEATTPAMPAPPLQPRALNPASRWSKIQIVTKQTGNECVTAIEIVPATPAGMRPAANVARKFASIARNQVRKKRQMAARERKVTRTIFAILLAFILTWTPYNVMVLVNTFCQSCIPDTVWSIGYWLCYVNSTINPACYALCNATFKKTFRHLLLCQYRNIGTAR
UniProt P33261, whole entry: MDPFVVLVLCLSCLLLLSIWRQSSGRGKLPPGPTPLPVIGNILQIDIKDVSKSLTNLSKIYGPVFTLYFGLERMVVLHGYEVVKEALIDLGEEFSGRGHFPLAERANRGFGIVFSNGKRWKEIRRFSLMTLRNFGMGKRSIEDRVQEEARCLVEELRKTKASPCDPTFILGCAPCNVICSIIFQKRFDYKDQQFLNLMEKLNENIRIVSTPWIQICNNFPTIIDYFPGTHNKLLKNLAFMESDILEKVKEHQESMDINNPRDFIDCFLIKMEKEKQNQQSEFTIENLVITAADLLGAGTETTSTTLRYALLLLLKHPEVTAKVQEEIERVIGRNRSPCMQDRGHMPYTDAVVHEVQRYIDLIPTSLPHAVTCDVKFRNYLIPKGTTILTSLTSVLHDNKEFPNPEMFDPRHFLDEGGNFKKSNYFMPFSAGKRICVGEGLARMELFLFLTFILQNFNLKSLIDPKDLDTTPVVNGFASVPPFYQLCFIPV
UniProt P11712, whole entry: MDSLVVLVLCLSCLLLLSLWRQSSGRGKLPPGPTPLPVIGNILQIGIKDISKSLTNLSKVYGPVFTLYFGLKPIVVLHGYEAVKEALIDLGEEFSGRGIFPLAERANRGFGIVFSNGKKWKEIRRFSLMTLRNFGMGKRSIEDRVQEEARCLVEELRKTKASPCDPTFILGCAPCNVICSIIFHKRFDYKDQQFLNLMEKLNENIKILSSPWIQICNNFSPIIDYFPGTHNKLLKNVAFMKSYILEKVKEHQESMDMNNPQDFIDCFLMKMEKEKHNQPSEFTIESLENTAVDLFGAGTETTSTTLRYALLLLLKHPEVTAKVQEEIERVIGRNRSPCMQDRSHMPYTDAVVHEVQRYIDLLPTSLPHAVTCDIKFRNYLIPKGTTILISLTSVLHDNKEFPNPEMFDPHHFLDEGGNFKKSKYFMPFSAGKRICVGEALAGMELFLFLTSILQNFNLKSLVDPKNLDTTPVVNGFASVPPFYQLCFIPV
UniProt P15207, whole entry S389L: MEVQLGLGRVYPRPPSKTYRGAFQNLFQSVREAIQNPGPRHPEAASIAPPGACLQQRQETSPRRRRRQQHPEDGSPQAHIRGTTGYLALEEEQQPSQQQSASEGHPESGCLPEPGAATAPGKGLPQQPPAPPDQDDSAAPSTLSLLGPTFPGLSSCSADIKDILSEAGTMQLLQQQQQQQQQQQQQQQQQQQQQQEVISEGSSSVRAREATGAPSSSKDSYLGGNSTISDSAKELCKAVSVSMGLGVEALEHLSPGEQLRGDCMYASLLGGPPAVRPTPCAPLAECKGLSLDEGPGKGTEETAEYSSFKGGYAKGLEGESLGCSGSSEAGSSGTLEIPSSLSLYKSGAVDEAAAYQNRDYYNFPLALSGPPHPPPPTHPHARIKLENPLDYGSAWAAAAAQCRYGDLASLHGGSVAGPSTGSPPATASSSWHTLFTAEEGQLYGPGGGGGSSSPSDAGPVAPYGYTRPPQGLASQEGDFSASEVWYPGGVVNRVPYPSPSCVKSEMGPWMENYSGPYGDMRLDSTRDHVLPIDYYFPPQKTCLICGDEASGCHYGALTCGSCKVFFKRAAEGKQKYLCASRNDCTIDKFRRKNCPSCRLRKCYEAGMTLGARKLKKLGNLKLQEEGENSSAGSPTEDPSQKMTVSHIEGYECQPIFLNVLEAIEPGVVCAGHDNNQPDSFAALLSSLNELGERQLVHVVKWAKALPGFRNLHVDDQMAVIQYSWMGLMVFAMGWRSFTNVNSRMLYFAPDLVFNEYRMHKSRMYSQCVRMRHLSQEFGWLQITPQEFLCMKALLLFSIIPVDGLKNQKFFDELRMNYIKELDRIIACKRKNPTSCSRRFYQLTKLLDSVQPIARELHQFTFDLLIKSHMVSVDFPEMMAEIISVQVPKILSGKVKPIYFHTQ

Legend:
[1] = target: Alpha-2A adrenergic receptor (Homo sapiens, UniProt P08913); type: cell membranes, Membrane; settings: sf9; further: in other assays of this panel Not Active means under 50% inhibition at 10 µM
[2] = target: Sodium-dependent noradrenaline transporter (Homo sapiens, UniProt P23975); assay: DRUGMATRIX: Norepinephrine Transporter radioligand binding (ligand: [125I] RTI-55); type: cell membranes, MDCK, Membrane; settings: Not Active = under 50% inhibition at 10 µM
[3] = target: 5-hydroxytryptamine receptor 2B (Homo sapiens, UniProt P41595); type: cell membranes, Membrane; settings: cho-k1; further: in other assays of this panel Not Active means under 50% inhibition at 10 µM
D(1A) dopamine receptor = D(1A) dopamine receptor (Homo sapiens, UniProt P21728); assay: DRUGMATRIX: Dopamine D1 radioligand binding (ligand: [3H] SCH-23390); type: cell membranes, CHO, Membrane; settings: cho; Not Active = under 50% inhibition at 10 µM
[4] = target: Sodium-dependent dopamine transporter (Homo sapiens, UniProt Q01959); assay: DRUGMATRIX: Dopamine Transporter radioligand binding (ligand: [125I] RTI-55); type: cell membranes, Membrane; settings: cho-k1; Not Active = under 50% inhibition at 10 µM
Glucocorticoid receptor = target: T1, Glucocorticoid receptor (Homo sapiens, UniProt P04150); assay: biochemical; further: in other assays of this panel Not Active means under 50% inhibition at 10 µM
T1 sequence (P04150 whole entry): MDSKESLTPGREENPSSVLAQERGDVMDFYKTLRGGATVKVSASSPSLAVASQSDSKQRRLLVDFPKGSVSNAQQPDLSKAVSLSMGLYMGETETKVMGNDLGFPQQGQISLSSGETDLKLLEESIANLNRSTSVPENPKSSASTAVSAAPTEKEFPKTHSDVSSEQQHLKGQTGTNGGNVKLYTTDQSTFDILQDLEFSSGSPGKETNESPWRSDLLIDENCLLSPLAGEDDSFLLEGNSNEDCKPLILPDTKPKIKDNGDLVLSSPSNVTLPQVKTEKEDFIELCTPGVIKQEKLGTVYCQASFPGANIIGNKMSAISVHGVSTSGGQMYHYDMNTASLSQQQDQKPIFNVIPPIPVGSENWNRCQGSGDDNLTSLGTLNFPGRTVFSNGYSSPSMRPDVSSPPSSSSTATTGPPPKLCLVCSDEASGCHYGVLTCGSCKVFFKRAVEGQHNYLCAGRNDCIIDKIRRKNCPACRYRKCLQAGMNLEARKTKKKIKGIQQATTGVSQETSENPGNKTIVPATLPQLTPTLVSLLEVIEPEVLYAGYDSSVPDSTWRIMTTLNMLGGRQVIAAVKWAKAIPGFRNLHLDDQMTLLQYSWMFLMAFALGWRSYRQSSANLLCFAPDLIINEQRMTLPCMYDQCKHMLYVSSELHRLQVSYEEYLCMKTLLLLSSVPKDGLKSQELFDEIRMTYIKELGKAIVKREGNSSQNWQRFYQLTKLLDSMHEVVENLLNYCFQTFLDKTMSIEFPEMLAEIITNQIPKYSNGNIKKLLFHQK

[5] = target: Muscarinic acetylcholine receptor M4 (Homo sapiens, UniProt P08173); type: cell membranes, Membrane; settings: cho-k1; further: in other assays of this panel Not Active means under 50% inhibition at 10 µM
Cytochrome P450 2C19 = Cytochrome P450 2C19 (Homo sapiens, UniProt P33261); further: in other assays of this panel Not Active means under 50% inhibition at 10 µM
Cytochrome P450 2C9 = Cytochrome P450 2C9 (Homo sapiens, UniProt P11712); further: in other assays of this panel Not Active means under 50% inhibition at 10 µM
Androgen receptor = Androgen receptor (Rattus norvegicus, UniProt P15207); further: in other assays of this panel Not Active means under 50% inhibition at 10 µM

`C[C@H]1C[C@H]2[C@@H]3CCC4=CC(=O)C=C[C@]4(C)[C@@]3(F)[C@@H](O)C[C@]2(C)[C@@]1(O)C(=O)COP(=O)(O)O` [BETAMETHASONE PHOSPHORIC ACID] was tested, and the IC50 [1] was “Not Active”, the IC50 ([2]; mdck) was “Not Active” and the IC50 [3] was “Not Active”. The IC50 (D(1A) dopamine receptor) was “Not Active”, the IC50 [4] was “Not Active” and the IC50 (Glucocorticoid receptor) was 8.22 nM. For the same compound, the Ki (Glucocorticoid receptor) was 3.73 nM.
For `CN(C)CCOC(c1ccccc1)c1ccccc1.Cn1c(=O)c2[nH]c(Cl)nc2n(C)c1=O` [DIMENHYDRINATE], the IC50 (D(1A) dopamine receptor) was “Not Active”.
In the case of `Clc1ccc(CO/N=C(\Cn2ccnc2)c2ccc(Cl)cc2Cl)c(Cl)c1` [OXICONAZOLE], the Ki [2] is reported as 1890 nM, the IC50 ([2]; read-out: IC50) is reported as 1910 nM and the IC50 [5] is reported as “Not Active”. The IC50 (Cytochrome P450 2C19) was 40 nM and the IC50 (Cytochrome P450 2C9) was 3 µM.
With `NC(=O)C1CCN(CCCN2c3ccccc3Sc3ccc(Cl)cc32)CC1` [PIPAMAZINE] the IC50 [4] was “Not Active”, the IC50 [5] was “Not Active” and the IC50 (Androgen receptor) was “Not Active”.
